This assay concerns the target T1, His-tagged translocation-associated membrane protein 2 (TRAM2) (UniProt Q924Z5).
T1 sequence: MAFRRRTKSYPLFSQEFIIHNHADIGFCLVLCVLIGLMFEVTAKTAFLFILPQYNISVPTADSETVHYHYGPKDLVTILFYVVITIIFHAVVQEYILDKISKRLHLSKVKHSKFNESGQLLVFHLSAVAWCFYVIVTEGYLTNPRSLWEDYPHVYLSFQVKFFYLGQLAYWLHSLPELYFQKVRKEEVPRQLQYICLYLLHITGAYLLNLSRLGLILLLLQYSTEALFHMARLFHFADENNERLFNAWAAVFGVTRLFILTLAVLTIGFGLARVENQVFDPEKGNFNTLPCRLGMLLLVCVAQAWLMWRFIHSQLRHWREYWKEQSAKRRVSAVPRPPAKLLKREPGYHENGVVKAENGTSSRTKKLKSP
The assay is described as follows: co-IP; His antibody precipitates N-terminally His-tagged TRAM2 from transfected BMSCs; blots for endogenous SERCA2b and Col1; cells treated with Ion, TG, FT011 or FT011 plus Lv-Col1.

No constants are given. Whether binding was seen depends on the method and setting. Binding seen in cells or lysates may run through a third protein. Some entries that bind do so weakly or less than the wild type. Sequences can lack the tags named with a protein.

Take “sarcoplasmic/endoplasmic reticulum calcium ATPase 2b (SERCA2b) (from UniProt O55143-1 1-1044)”: the binding result is on record as “binds”.

The values are drawn from paper PMC8336496.
